According to the supplement of paper PMC11006884:
Only a part is listed here, and it is no random draw.

Chains of the proteins cited; added tags and fusions are not shown. Lines headed by an entry give the natural chain unless they say otherwise; changes in a name come on top.
UniProt Q92616, whole entry, looked up: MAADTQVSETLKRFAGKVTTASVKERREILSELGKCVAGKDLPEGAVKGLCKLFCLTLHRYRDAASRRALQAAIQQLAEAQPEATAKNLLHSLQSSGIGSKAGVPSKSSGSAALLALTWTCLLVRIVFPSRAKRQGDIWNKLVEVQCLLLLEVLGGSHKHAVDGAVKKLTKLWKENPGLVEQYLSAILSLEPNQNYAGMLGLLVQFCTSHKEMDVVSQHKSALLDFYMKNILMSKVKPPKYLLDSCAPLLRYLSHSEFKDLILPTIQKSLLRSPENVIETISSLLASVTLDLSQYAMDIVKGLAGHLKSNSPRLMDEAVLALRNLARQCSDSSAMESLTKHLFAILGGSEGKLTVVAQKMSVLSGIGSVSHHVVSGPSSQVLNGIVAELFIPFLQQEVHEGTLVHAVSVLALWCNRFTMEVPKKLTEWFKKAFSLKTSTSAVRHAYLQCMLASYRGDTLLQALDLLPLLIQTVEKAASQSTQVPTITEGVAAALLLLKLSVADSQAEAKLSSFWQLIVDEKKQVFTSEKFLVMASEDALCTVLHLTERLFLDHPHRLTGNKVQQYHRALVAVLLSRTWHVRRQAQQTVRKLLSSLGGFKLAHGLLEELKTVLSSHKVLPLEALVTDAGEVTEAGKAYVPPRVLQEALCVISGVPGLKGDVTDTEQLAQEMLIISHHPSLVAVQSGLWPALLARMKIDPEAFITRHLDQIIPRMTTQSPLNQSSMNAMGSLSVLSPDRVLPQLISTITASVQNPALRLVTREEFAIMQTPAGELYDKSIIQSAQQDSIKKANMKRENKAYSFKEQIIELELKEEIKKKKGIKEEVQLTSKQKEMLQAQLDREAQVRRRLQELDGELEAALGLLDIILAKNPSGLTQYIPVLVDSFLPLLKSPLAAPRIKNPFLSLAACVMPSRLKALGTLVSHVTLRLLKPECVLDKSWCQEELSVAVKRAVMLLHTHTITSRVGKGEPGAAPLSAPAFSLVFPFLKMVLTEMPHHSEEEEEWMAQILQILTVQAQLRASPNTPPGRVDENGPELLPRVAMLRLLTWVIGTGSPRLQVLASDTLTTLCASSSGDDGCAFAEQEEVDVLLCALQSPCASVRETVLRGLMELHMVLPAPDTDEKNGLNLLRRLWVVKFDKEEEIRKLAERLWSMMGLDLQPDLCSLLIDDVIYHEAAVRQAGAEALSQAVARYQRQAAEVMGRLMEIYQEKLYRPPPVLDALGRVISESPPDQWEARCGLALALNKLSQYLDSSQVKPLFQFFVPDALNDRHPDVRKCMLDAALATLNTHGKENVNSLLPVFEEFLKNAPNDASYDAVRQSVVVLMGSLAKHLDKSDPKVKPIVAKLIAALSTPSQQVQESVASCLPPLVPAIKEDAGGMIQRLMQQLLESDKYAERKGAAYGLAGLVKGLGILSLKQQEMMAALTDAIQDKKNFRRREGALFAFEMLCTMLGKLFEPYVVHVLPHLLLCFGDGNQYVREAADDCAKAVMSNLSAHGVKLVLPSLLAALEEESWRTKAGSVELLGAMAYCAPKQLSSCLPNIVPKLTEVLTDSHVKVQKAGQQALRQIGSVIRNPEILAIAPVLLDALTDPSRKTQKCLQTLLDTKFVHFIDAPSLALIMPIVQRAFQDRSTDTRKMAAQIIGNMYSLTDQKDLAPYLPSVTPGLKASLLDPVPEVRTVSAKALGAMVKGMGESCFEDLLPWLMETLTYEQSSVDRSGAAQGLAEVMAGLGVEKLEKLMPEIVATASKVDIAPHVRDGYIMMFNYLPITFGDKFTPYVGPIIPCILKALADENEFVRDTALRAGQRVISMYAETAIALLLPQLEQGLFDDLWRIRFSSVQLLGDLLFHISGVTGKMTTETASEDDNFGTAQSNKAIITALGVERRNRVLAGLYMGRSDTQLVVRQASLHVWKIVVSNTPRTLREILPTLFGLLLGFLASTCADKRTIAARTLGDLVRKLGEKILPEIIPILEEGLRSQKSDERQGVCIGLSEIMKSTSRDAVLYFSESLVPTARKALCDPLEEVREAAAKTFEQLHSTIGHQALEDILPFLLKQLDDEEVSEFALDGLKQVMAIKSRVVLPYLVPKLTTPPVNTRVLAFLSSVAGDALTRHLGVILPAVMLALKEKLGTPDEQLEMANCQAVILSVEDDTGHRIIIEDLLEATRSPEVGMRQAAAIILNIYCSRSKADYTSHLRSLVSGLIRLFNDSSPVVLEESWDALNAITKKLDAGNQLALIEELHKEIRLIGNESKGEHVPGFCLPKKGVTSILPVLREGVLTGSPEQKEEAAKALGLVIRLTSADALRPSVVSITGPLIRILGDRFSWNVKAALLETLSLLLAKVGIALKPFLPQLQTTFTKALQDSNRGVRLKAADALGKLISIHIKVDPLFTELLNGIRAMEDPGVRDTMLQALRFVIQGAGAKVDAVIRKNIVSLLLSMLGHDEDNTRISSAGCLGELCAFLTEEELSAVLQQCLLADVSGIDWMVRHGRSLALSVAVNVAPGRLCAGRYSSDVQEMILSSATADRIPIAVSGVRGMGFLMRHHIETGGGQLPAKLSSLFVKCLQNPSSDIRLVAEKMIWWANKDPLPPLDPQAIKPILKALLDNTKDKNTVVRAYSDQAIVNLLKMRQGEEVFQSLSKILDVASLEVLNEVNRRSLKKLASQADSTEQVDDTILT
UniProt Q93009, whole entry, looked up: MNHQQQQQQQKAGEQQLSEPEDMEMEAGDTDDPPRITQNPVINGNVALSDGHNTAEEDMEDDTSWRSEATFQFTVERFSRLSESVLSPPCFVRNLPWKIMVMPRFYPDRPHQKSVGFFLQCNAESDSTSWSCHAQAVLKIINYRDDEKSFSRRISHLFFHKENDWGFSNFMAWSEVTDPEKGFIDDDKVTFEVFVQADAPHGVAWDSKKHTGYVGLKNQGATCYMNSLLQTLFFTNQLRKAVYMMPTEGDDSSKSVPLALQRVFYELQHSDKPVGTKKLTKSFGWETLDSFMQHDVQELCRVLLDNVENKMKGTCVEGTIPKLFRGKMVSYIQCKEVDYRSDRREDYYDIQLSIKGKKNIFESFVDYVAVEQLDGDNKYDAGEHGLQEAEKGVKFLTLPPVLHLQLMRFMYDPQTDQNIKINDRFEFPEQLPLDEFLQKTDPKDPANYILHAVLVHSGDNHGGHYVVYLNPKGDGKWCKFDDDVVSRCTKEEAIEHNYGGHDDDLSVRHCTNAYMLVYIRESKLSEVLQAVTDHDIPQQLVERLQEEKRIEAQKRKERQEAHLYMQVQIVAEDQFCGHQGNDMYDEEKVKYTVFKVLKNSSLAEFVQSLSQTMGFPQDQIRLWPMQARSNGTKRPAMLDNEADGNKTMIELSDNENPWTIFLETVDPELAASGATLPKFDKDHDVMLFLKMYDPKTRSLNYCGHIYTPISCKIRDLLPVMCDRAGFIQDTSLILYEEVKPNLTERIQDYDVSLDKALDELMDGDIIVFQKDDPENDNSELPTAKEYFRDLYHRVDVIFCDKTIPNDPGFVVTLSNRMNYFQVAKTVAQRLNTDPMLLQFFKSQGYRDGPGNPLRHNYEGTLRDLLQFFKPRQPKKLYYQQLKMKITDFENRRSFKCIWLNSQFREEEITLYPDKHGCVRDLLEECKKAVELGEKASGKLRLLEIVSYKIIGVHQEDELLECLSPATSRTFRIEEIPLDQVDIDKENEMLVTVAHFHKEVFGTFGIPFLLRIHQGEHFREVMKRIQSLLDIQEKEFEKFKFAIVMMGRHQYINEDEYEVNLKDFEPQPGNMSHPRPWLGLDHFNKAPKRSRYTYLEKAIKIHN
UniProt Q92878: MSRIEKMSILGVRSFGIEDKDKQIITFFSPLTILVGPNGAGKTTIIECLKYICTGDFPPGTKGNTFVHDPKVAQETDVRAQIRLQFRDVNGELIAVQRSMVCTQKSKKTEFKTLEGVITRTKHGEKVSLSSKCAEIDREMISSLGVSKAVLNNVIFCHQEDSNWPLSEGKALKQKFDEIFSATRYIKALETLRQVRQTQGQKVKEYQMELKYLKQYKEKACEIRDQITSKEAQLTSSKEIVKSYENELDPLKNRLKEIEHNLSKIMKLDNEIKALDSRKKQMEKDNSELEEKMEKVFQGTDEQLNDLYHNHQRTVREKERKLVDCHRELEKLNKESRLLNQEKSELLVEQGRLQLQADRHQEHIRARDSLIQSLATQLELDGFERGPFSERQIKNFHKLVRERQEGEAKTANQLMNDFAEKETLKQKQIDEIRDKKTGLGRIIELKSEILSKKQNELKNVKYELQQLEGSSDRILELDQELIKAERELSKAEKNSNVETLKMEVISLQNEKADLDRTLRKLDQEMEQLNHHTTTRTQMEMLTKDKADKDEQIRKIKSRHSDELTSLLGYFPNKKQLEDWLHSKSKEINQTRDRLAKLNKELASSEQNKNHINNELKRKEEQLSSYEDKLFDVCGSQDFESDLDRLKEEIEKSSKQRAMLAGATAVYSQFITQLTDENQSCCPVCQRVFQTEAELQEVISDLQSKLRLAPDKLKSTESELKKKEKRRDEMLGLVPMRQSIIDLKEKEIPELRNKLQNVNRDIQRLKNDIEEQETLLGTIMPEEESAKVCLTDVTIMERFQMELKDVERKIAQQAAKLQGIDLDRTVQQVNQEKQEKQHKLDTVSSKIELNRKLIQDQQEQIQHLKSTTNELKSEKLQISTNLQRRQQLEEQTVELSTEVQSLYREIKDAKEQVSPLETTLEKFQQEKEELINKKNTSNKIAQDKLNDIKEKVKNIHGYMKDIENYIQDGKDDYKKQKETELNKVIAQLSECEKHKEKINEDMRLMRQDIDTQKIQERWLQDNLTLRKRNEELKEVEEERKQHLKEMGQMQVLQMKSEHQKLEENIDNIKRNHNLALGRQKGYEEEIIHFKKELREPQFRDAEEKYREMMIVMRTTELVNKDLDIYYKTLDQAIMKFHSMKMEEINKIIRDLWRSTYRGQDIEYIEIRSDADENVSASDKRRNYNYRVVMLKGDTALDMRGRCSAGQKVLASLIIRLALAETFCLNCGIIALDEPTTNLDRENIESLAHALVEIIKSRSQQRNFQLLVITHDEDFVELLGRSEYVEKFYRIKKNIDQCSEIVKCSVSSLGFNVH
UniProt Q92564: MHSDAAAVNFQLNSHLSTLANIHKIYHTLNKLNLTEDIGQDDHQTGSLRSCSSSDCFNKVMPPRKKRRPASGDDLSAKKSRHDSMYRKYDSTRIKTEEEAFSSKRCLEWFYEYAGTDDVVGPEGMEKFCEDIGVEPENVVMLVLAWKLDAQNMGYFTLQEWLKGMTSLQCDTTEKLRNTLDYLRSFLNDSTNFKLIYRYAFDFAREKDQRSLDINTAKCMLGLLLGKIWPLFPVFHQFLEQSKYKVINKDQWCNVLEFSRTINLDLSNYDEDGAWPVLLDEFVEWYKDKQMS
UniProt Q96FZ5: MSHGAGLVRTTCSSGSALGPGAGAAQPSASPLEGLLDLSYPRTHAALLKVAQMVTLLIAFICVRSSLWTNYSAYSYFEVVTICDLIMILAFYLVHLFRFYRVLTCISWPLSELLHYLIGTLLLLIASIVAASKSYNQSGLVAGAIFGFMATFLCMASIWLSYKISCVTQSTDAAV
UniProt Q96GQ7: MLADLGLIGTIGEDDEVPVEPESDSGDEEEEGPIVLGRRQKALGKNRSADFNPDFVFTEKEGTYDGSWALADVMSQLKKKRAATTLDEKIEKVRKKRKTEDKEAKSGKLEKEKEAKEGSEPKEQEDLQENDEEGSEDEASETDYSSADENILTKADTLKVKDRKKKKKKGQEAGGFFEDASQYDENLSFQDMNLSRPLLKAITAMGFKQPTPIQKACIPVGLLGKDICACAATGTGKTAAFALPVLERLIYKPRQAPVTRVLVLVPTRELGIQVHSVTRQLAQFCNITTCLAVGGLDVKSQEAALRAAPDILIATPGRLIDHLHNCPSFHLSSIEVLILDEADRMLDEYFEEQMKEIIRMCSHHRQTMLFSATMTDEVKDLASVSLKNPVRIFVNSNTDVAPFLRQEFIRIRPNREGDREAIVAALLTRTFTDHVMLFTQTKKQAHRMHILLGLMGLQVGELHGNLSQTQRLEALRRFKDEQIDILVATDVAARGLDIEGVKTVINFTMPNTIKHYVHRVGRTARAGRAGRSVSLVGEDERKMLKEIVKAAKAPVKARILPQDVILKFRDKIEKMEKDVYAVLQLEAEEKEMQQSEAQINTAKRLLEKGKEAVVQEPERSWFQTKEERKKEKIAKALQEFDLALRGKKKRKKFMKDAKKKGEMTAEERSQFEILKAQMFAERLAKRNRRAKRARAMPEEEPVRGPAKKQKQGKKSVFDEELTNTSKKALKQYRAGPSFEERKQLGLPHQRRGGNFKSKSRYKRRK

compound: COC(=O)C#Cc1ccccc1 [methyl 3-phenylpropiolate]; assay: log2 ratio of iodoacetamide-alkyne labeling of the cysteine site, DMSO over compound (competition); higher = stronger covalent engagement of the cysteine by the compound, active = 1 or more; settings: 500 µM; treatment time 1 h; system: HEK293T cell lysate
How it was run: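 The log2 competition ratio per cysteine is defined as mean reporter intensity in control channels over mean reporter intensity in compound channels. Lysate from HEK293T cells (2 mg/mL) received electrophile (500 µM) or vehicle for 1 h at ambient temperature, followed by iodoacetamide alkyne for 1 h. Samples were clicked to sCIP-TMT reagents, pooled, trypsin-digested overnight at 37 °C, streptavidin-enriched, acid-eluted and run on Orbitrap Eclipse LC-MS/MS with FAIMS, with quantification in FragPipe. Three replicates with duplicate channels were used, and any cysteine quantified in only one replicate was excluded.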

log2 ratio of iodoacetamide-alkyne labeling, inactive:
UniProt Q92616_C246 0.0435, SMARCE1 C274 (UniProt Q969G3) 0.0379, UniProt Q96CS4_C70 -0.0277, USP7 C315 (UniProt Q93009) 0.541, LPP C364 (UniProt Q93052) 0.161, TONSL C762 (UniProt Q96HA7) 0.961, TSC1 C306 (UniProt Q92574) 0.724, RAD50 C102 (UniProt Q92878) 0.731, DCUN1D4 C253 (UniProt Q92564) 0.287, UniProt Q96FZ5_C12 0.296, OTUD5 C519 (UniProt Q96G74) 0.384, MRPL24 C190 (UniProt Q96A35) -0.00775, EDC3 C413 (UniProt Q96F86) -0.0482, DDX27 C321 (UniProt Q96GQ7) 0.126, UniProt Q92616_C1275 -0.145
